In the supplement of paper PMC10849652:
The other results are listed elsewhere or left out.

The chains behind the UniProt entries cited, without tags or fusion partners. Where a name states a change or a piece, a line headed by the entry shows the natural chain unless it says otherwise.
UniProt Q8IY63: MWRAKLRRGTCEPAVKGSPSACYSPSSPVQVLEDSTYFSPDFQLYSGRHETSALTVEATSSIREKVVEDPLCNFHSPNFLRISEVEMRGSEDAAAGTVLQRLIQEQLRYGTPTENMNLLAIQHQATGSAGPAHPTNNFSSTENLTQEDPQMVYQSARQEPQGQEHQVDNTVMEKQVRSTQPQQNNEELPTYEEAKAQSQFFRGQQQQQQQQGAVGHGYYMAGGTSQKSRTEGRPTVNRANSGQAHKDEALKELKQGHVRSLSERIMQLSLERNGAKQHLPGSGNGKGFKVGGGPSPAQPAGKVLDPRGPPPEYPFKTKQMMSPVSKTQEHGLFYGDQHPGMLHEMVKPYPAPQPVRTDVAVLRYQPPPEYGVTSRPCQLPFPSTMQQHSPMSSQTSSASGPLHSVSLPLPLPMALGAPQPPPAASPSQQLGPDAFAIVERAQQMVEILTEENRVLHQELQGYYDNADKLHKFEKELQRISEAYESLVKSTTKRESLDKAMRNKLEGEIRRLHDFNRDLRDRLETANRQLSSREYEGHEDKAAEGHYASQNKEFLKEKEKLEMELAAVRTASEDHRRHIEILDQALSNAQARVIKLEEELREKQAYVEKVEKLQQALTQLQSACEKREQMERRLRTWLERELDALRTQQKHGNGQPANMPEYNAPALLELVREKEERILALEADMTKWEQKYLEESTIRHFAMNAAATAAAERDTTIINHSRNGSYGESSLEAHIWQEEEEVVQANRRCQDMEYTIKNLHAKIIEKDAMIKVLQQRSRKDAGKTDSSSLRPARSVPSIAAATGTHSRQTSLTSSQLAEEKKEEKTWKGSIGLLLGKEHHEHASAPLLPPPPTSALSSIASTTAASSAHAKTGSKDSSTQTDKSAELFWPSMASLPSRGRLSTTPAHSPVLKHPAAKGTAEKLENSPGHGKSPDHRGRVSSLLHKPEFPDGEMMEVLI
UniProt O00189: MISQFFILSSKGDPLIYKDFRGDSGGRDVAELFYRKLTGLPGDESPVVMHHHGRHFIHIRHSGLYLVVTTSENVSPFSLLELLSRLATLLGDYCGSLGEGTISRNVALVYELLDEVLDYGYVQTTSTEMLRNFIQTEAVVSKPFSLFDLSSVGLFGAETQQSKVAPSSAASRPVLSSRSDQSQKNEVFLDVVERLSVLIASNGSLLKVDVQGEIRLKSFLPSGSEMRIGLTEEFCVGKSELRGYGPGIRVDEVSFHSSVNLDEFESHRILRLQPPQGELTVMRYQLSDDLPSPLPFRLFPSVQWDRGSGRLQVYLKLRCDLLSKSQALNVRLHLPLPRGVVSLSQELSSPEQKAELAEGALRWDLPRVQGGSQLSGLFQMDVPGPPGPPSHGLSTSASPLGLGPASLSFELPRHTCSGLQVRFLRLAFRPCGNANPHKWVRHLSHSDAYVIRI
UniProt P16157: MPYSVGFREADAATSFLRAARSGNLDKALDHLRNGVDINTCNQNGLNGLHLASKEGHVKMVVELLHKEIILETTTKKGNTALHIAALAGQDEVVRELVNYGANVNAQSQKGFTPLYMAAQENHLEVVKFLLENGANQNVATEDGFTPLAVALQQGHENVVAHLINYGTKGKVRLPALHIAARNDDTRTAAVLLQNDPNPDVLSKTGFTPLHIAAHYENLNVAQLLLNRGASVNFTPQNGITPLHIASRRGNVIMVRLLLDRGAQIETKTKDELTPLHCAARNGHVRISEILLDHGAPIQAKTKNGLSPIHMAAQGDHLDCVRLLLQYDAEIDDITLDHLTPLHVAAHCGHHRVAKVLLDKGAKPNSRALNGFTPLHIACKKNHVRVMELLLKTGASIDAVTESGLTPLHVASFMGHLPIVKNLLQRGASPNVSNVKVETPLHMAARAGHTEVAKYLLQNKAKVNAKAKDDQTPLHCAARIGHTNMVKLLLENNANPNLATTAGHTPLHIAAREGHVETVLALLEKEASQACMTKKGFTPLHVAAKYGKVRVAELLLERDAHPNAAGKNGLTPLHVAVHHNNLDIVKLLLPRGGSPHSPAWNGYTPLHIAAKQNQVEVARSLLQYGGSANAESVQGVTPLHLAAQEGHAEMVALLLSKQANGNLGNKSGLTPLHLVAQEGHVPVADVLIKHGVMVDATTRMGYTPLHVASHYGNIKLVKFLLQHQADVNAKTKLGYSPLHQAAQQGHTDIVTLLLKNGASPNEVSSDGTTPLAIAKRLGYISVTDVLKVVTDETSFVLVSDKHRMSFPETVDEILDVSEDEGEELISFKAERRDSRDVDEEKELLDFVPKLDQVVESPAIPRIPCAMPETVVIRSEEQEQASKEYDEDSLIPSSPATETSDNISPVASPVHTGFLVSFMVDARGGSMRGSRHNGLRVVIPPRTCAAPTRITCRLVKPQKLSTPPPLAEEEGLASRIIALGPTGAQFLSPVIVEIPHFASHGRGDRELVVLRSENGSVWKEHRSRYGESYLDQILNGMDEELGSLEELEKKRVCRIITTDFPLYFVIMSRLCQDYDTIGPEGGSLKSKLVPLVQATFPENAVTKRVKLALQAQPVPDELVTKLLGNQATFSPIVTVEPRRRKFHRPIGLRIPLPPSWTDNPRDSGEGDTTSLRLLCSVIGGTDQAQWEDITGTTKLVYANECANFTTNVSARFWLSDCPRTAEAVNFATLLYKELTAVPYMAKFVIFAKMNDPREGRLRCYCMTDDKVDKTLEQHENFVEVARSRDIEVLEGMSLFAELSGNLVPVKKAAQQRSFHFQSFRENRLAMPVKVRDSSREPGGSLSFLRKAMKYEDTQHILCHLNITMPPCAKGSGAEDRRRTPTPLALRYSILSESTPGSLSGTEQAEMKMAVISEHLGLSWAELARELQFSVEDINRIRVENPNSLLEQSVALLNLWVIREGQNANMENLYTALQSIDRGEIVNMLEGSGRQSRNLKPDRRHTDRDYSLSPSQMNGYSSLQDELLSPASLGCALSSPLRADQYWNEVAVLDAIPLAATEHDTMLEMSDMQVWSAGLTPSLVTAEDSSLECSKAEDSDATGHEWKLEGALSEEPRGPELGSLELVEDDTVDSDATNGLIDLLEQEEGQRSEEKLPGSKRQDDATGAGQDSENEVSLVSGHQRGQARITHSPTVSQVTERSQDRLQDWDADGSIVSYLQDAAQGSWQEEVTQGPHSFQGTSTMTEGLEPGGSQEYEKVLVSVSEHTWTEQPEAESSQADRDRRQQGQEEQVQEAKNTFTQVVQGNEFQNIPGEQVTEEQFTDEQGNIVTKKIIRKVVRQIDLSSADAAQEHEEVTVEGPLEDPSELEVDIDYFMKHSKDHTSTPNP
UniProt Q8IV38: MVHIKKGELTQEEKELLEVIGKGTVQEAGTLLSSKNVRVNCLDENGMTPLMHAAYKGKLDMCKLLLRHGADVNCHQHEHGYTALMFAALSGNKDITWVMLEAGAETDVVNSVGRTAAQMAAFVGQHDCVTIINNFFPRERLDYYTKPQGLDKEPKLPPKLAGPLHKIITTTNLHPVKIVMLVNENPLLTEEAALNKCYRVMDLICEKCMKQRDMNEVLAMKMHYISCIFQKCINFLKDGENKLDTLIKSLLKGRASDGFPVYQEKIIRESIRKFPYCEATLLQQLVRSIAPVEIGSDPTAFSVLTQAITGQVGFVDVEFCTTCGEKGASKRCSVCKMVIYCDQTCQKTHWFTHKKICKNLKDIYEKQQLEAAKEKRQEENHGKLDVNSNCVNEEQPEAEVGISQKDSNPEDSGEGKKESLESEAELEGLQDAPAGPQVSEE
UniProt P00352: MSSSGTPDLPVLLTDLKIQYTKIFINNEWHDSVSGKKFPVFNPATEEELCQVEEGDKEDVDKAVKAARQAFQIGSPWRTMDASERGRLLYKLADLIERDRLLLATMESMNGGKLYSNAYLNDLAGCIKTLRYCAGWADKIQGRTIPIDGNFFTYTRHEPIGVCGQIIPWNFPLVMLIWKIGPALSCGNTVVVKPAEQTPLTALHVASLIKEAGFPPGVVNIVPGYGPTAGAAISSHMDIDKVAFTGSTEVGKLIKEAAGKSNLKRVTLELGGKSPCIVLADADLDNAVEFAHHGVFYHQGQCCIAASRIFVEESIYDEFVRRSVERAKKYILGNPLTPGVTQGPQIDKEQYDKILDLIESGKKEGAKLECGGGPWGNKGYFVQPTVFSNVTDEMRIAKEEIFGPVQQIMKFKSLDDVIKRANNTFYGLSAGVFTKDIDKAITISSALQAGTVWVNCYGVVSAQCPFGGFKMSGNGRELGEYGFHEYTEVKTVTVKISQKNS
UniProt Q6ZTN6: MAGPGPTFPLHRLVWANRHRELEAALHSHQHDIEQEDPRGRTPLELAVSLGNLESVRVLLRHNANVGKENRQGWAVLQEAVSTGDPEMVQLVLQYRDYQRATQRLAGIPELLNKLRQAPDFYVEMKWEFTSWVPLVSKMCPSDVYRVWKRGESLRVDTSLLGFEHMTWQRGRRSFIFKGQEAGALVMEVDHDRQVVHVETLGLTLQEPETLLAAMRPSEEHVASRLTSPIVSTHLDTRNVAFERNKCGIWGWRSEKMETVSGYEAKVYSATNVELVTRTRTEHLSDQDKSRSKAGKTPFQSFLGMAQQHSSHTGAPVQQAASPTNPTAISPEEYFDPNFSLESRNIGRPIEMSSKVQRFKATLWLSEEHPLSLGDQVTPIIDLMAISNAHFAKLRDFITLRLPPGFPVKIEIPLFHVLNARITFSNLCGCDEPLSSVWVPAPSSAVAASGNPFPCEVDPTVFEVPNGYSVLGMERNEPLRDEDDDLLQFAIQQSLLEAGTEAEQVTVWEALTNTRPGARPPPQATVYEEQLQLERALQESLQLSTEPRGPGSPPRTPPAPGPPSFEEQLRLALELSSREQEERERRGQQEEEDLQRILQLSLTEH
UniProt O14617: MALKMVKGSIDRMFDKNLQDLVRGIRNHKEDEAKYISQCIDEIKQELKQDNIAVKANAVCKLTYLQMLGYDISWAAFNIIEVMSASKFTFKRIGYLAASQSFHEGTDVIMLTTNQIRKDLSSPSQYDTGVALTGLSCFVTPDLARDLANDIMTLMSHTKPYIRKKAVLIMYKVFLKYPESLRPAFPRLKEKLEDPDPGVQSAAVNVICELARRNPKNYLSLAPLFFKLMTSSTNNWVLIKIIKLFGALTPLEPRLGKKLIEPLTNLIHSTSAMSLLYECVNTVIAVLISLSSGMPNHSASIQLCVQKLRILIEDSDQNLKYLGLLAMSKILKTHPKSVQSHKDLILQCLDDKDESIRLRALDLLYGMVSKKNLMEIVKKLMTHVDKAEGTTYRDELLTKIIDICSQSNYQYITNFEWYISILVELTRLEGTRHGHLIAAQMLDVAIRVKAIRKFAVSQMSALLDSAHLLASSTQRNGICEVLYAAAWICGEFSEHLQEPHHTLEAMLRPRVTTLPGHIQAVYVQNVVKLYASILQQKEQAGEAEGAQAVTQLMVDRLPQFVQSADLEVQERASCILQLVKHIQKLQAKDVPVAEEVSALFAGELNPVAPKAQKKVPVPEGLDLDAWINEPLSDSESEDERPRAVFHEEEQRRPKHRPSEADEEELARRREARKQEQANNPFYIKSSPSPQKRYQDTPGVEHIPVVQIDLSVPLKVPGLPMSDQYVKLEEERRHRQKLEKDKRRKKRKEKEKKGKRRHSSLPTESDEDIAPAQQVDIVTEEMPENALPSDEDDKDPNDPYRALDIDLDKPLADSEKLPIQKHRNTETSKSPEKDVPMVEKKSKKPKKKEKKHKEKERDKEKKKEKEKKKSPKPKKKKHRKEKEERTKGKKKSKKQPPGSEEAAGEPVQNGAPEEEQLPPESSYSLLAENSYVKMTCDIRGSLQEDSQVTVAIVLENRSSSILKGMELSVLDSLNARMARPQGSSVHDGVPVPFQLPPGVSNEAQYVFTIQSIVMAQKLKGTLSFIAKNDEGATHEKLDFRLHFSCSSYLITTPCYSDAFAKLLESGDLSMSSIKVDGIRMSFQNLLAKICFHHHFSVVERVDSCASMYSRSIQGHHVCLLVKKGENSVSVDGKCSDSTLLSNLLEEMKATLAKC
UniProt Q9UJX3, whole entry, looked up: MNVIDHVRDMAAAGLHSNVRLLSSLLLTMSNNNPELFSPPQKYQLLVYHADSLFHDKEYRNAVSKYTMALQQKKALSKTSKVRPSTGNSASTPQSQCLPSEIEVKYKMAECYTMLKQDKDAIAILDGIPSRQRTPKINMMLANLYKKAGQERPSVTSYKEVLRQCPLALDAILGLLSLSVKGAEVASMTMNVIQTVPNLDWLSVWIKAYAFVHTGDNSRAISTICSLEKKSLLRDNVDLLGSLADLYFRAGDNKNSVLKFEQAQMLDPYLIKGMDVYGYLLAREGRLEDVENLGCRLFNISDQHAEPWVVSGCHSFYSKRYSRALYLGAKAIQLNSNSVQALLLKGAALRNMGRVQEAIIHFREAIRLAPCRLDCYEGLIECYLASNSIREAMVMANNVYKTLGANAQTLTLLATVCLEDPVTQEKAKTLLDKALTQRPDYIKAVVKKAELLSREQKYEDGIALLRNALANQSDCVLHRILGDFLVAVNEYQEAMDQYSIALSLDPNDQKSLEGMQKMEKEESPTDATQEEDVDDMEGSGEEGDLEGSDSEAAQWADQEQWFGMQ

Key:
Experiment in all cases: log2 fold change, soluble protein after heating vs DMSO (PISA); higher = thermal stabilisation; K562 lysate, 10 uM; active = over 0.2 and 3.5 SD of the protein, either way, in both replicates (recomputed)
[1] = compound: NCC(=O)Nc1ccc(-n2nc(C(F)(F)F)cc2-c2ccc3c(ccc4ccccc43)c2)cc1
Method in brief: (§1)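 A 30 min treatment with 10 μM compound was applied to crude K562 extract at 1 mg/mL protein in PBS pH 7.4 with 1 mM MgCl2. Heating for 3 min spanned 48°C-58°C, after which aliquots were pooled, adjusted to 0.5% NP-40 at 4°C and spun at 21,000xg for 90 min. TMTpro 16plex LC-MS/MS of the supernatant, with channel sums equalised, gave values recorded as log-two fold change in thermal stability against solvent controls, from duplicates.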

[2] = compound: O=C(CCCCCCC(=O)Nc1ccccc1)NO [vorinostat]
Method in brief: as §1

[3] = compound: O=C(O)c1ccc2c(c1)nc(Nc1cccc(Cl)c1)c1ccncc12 [silmitasertib]
Method in brief: as §1

[4] = compound: O=C1NC(=O)C(c2cnc3ccccn23)=C1c1cn2c3c(cc(F)cc13)CN(C(=O)N1CCCCC1)CC2
Method in brief: as §1

[5] = compound: c1cn2cc(-c3ccc4cn[nH]c4c3)nc(Nc3ccc(N4CCOCC4)cc3)c2n1 [entospletinib]
Method in brief: as §1

AMOTL1 (UniProt Q8IY63)
log2 fold change [1]: inactive: 0.218 | log2 fold change [2]: inactive: -0.036 | log2 fold change [3]: inactive: 0.002 | log2 fold change [4]: inactive: 0 | log2 fold change [5]: inactive: -0.015

ALKBH8 isoform 4 (UniProt Q96BT7)
log2 fold change [1]: inactive: -0.043 | log2 fold change [2]: inactive: 0.083 | log2 fold change [3]: inactive: -0.094 | log2 fold change [4]: inactive: -0.053 | log2 fold change [5]: inactive: -0.067

AP4M1 (UniProt O00189)
log2 fold change [1]: inactive: 0.054 | log2 fold change [2]: inactive: -0.061 | log2 fold change [3]: inactive: -0.02 | log2 fold change [4]: inactive: 0.005 | log2 fold change [5]: inactive: 0.092

ALG6 (UniProt Q9Y672)
log2 fold change [1]: inactive: -0.258 | log2 fold change [2]: inactive: 0.042 | log2 fold change [3]: inactive: -0.013 | log2 fold change [4]: inactive: 0.031 | log2 fold change [5]: inactive: 0.047

ANK1 isoform 14 (UniProt P16157)
log2 fold change [1]: inactive: 0.037 | log2 fold change [2]: inactive: -0.18 | log2 fold change [3]: inactive: 0.022 | log2 fold change [4]: inactive: 0.025 | log2 fold change [5]: inactive: 0.006

ANKMY2 (UniProt Q8IV38)
log2 fold change [1]: inactive: -0.064 | log2 fold change [2]: inactive: -0.017 | log2 fold change [3]: inactive: 0.018 | log2 fold change [4]: inactive: -0.002 | log2 fold change [5]: inactive: 0.003

ANXA11 (UniProt P50995)
log2 fold change [1]: inactive: -0.003 | log2 fold change [2]: inactive: -0.117 | log2 fold change [3]: inactive: 0.044 | log2 fold change [4]: inactive: -0.018 | log2 fold change [5]: inactive: 0.031

ALDH1A1 (UniProt P00352)
log2 fold change [1]: inactive: -0.038 | log2 fold change [2]: inactive: 0.116 | log2 fold change [3]: inactive: -0.011 | log2 fold change [4]: inactive: -0.018 | log2 fold change [5]: inactive: 0.02

ANAPC2 (UniProt Q9UJX6)
log2 fold change [1]: inactive: 0.023 | log2 fold change [2]: inactive: -0.134 | log2 fold change [3]: inactive: 0.003 | log2 fold change [4]: inactive: 0.005 | log2 fold change [5]: inactive: 0.021

AMMECR1L (UniProt Q6DCA0)
log2 fold change [1]: inactive: -0.024 | log2 fold change [2]: inactive: -0.04 | log2 fold change [3]: inactive: -0.127 | log2 fold change [4]: inactive: -0.016 | log2 fold change [5]: inactive: 0.02

ANXA4 (UniProt P09525)
log2 fold change [1]: inactive: 0.03 | log2 fold change [2]: inactive: -0.003 | log2 fold change [3]: inactive: -0.001 | log2 fold change [4]: inactive: -0.002 | log2 fold change [5]: inactive: -0.008

ALG3 (UniProt Q92685)
log2 fold change [1]: inactive: -0.107 | log2 fold change [2]: active: 0.461 | log2 fold change [3]: inactive: 0.285 | log2 fold change [4]: inactive: -0.157 | log2 fold change [5]: inactive: -0.01

ALDH1B1 (UniProt P30837)
log2 fold change [1]: inactive: 0.027 | log2 fold change [2]: active: 1.15 | log2 fold change [3]: inactive: -0.051 | log2 fold change [4]: inactive: -0.022 | log2 fold change [5]: inactive: 0.033

AP3M1 (UniProt Q9Y2T2)
log2 fold change [1]: inactive: -0.007 | log2 fold change [2]: inactive: -0.1 | log2 fold change [3]: inactive: -0.005 | log2 fold change [4]: inactive: 0 | log2 fold change [5]: inactive: 0.01

ANKRD13D isoform 3 (UniProt Q6ZTN6)
log2 fold change [1]: inactive: -0.072 | log2 fold change [2]: inactive: 0.079 | log2 fold change [3]: inactive: -0.118 | log2 fold change [4]: inactive: -0.076 | log2 fold change [5]: inactive: -0.015

AP1G2 (UniProt O75843)
log2 fold change [1]: inactive: 0.071 | log2 fold change [2]: active: -0.31 | log2 fold change [3]: inactive: -0.03 | log2 fold change [4]: inactive: 0.008 | log2 fold change [5]: inactive: 0.018

AP3D1 isoform 5 (UniProt O14617)
log2 fold change [1]: inactive: -0.001 | log2 fold change [2]: inactive: -0.015 | log2 fold change [3]: inactive: -0.003 | log2 fold change [4]: inactive: 0.012 | log2 fold change [5]: inactive: 0.006

ALG2 (UniProt Q9H553)
log2 fold change [1]: inactive: 0.05 | log2 fold change [2]: inactive: 0.038 | log2 fold change [3]: inactive: 0.006 | log2 fold change [4]: inactive: -0.046 | log2 fold change [5]: inactive: -0.027

ANKRD26 (UniProt Q9UPS8)
log2 fold change [1]: inactive: -0.04 | log2 fold change [2]: inactive: -0.209 | log2 fold change [3]: inactive: -0.052 | log2 fold change [4]: inactive: -0.059 | log2 fold change [5]: inactive: -0.151

ALG8 (UniProt Q9BVK2)
log2 fold change [1]: inactive: -0.022 | log2 fold change [2]: inactive: -0.05 | log2 fold change [3]: inactive: 0.063 | log2 fold change [4]: inactive: -0.008 | log2 fold change [5]: inactive: -0.007

AP2A2 isoform 2 (UniProt O94973)
log2 fold change [1]: inactive: -0.012 | log2 fold change [2]: inactive: 0.015 | log2 fold change [3]: inactive: 0.035 | log2 fold change [4]: inactive: -0.02 | log2 fold change [5]: inactive: 0.019

AP3B2 isoform 4 (UniProt Q13367)
log2 fold change [1]: inactive: 0.002 | log2 fold change [2]: inactive: -0.097 | log2 fold change [3]: inactive: -0.022 | log2 fold change [4]: inactive: 0.02 | log2 fold change [5]: inactive: 0.036

ANAPC7 (UniProt Q9UJX3)
log2 fold change [1]: inactive: -0.035 | log2 fold change [2]: active: -0.218 | log2 fold change [3]: inactive: 0.023 | log2 fold change [4]: inactive: 0.007 | log2 fold change [5]: inactive: 0.046

AMPD3 isoform 4 (UniProt Q01432)
log2 fold change [1]: inactive: -0.038 | log2 fold change [2]: active: 0.256 | log2 fold change [3]: inactive: -0.005 | log2 fold change [4]: inactive: -0.021 | log2 fold change [5]: inactive: 0.018
